Source: PubChem BioAssay AID2685 (National Center for Advancing Translational Sciences (NCATS), 2010)
About 2,100 (0.66%) of roughly 320,000 compounds were called active. The inconclusive results got no clear call from the source; some entries with a clear call stand among them for comparison. The call rests on the fitted dose curve; in most records, active means well fitted inhibition curve with a large enough effect in the signal ratio, with a control signal flat (not every such curve was filed as active); inconclusive means small, poorly fitted or top-dose-only effect, or effect the other way, or a change in a side signal; inactive means flat fitted curve, though single readings scatter; the % refers to the signal ratio. A potency beside an inconclusive call is a rough fit, not a confirmed value.

Assay: qHTS Assay for Lipid Storage Modulators in Drosophila S3 Cells
Conditions: BODIPY lipid droplet fluorescence, 18-24 h, cells fed with added oleic acid; lipid storage change, negative = inhibition: at 46.1 µM (top of the series) unless noted
Summary of the method: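 Drosophila S3 cells loaded with oleic acid (400 uM, as added) and compounds at several concentrations; lipid droplets imaged by 488-nm laser-scanning cytometry, 500–530 nm intensity and object ratio to cell channel. Percent activity normalized to 20 uM Triacsin C.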
On the % scale 0 is the no-effect control and ±100 the full control effect; potency means the concentration at half of the fitted maximal effect.

SMILES | Potency | lipid storage change, negative = inhibition
COC(=O)c1cc(N2C(=O)C3C(C2=O)C2(C)C=CC3(C)O2)ccc1Cl (centres undefined) | inconclusive: 25.9 µM [falling, partial curve, poor fit] | 
O=C(COc1ccc(F)cc1)Nc1nnc(C2CCCCC2)s1 |  | inconclusive: 9.05%
CCOc1cc(NC(=O)C2CC2)c(OCC)cc1NC(=O)c1cc(OC)c(OC)c(OC)c1 |  | inconclusive: 22.5%
CC(=O)N1CCN(c2ccc([N+](=O)[O-])cc2C#N)CC1 |  | inconclusive: 14.5%
O=C(NCC1CCCO1)c1cccs1 (centres undefined) |  | inconclusive: -12.7%
O=C(c1ccc(S(=O)(=O)NCC2CCCO2)cc1)N1CCc2ccccc21 (centres undefined) | inconclusive: 14.6 µM [falling, partial curve, poor fit] | 
Nc1c(C(=O)NCc2ccc3c(c2)OCO3)c2nc3ccccc3nc2n1CCCN1CCOCC1 | inconclusive: 23.1 µM [falling, single point] | 
CCN(CC)CCCNC(=O)c1cc(-c2ccc(O)cc2)on1 |  | inconclusive: -54.5%
CCOC(=O)c1c(/N=C/C2C(=O)CC(C)(C)CC2=O)sc(C)c1C | inconclusive: 25.9 µM [activator, single point] | 
Cc1ccccc1NC(=O)n1ncc2cc(Cl)ccc21 |  | inconclusive: 48.8%
C/C=C/c1ccc(OCCOc2cc(C=O)ccc2OC)c(OC)c1 |  | inconclusive: 14.2%
O=C(NCc1ccccn1)c1cccc([N+](=O)[O-])c1 |  | inconclusive: -4.05%
C=CCC(=O)OCC(=O)Nc1ccc(Oc2ccccc2)cc1 |  | inconclusive: 21%
Fc1ccccc1-c1n[nH]c(=S)n1Cc1ccccc1 |  | inconclusive: 32.8%
Cc1ccc(/C=C2\SC(=S)N(CCCC(=O)Nc3cccc(C(=O)O)c3)C2=O)cc1 |  | inconclusive: -5.65%
Cc1cccc(-c2cc3nc(C)c(C)c(NCCCn4ccnc4)n3n2)c1 |  | inconclusive: -36.8%
COC(=O)C1CCCCN1C(=O)c1cccc(OC2CCN(C(=O)C3CC3)CC2)c1 (centres undefined) | inconclusive: 0.291 µM [falling, partial curve, poor fit] | 
CCC(=O)Nc1ccc(NC(=O)CSc2nnnn2-c2cccnc2)cc1C |  | inconclusive: 25.4%
CCCCn1c(N)c(N(CCOC)C(=O)c2sc3cc(F)ccc3c2Cl)c(=O)[nH]c1=O |  | inconclusive
COc1cc(/C=C2\SC(=S)N(CCCCC(=O)O)C2=O)ccc1OS(=O)(=O)c1ccc(C)cc1 | active: 20.6 µM | 
C=CCN(C(=O)c1csnn1)C(C(=O)NC1CCCCC1)c1ccc(C)cc1 (centres undefined) |  | inconclusive: -26.9%
O=C(COc1ccc(Cl)cc1Cl)N1CCNC1=O |  | inconclusive: 15.9%
CCn1c(SCC(=O)N2CCCC(C)C2)nnc1-c1ccc(S(=O)(=O)N2CCN(C)CC2)cc1 (centres undefined) |  | inconclusive: -10.4%
COc1ccccc1-c1nnc(SCC(=O)NC2CCS(=O)(=O)C2)n1N (centres undefined) |  | inconclusive: -5.94%
Clc1ccc(-c2nnc(-c3ccccc3)c(N3CCSCC3)n2)cc1 |  | inconclusive: -39.9%

Retrieved one by one from the entries so far (2):
SMILES | Potency | lipid storage change, negative = inhibition
Nc1c(C(=O)NCc2ccc3c(c2)OCO3)c2nc3ccccc3nc2n1CCCN1CCOCC1 | inconclusive: 23.1 µM [falling, single point] | 
Fc1ccccc1-c1n[nH]c(=S)n1Cc1ccccc1 |  | inconclusive: 32.8%

Additional compounds

SMILES | Potency | lipid storage change, negative = inhibition
O=C1CC(N2CCOCC2)=NN1c1ccc([N+](=O)[O-])cc1 |  | inconclusive: -14.5%
COc1ccc(NC(=O)[C@H](C)NC(=O)C2CCN(S(=O)(=O)c3ccc(C)cc3)CC2)cc1 |  | inconclusive: 211%
O=C(CN1CCN(c2ccccc2F)CC1)Nc1ccc2c(c1)CCC2 |  | inactive: 16.4%
Cc1ccc(C)c(S(=O)(=O)NCCCn2ccnc2)c1 |  | inconclusive: 17.6%
O=C(NCc1ccc2c(c1)OCO2)Nc1cccc2ccccc12 | inconclusive: 0.0041 µM [activator, full curve, poor fit] | 
C=C(c1ccc(OC)cc1)c1ccc(OC)cc1 |  | inconclusive: 96.4%
COc1cc2c(cc1OC)C1O[C@](c3ccsc3)(C2)OC2=C1C(=O)OC1(CCCCC1)C2 |  | inconclusive: 24% [at 9.22 µM]
CCOC(=O)CSc1c(-c2ccc(Cl)cc2)[nH]c2ccccc12 | inconclusive: 2.06 µM [activator, partial curve, poor fit] | 
CCOc1ccc(NC(=O)CSc2nnc(COc3c(C)cccc3C)o2)cc1 |  | inconclusive: 17%
NS(=O)(=O)c1ccc(CCNc2ccccc2[N+](=O)[O-])cc1 |  | inconclusive: 9.96%
CNC(=O)c1csc(-c2ccccc2)n1 |  | inconclusive: 1.72%
COc1ccc(-c2noc(CSc3nnc(Cc4ccccc4)n3-c3cccc(C)c3)n2)cc1OC |  | inconclusive: 94.3%
O=C(Nc1ccccc1)OC1C2CCC1C(N1CCCCC1)CC2 (centres undefined) |  | inconclusive: 6.32%
CCOc1ccc(S(=O)(=O)NCc2cccs2)cc1C(C)C |  | inconclusive
C#CCOCCOCCOCCNc1nc(N2CCN(C(=O)CCCCCCCCCCNC(=O)Cn3cc(CCCCCN)nn3)CC2)nc(N2CCN(C(=O)CCCCCCCCCCNC(=O)[C@H]([C@@H](C)CC)n3cc(CCCCN=C(N)N)nn3)CC2)n1 | inconclusive: 1.64 µM [falling, partial curve, poor fit] | 
Cc1ccc(CSCC(=O)NN=C2CCN(C)CC2)cc1 |  | inconclusive: -1.76%
O=C1CC2(CCN(C(=O)c3ccccc3F)CC2)Oc2ccccc21 | inconclusive: 0.82 µM [falling, partial curve] | 
CCOC(=O)N1CCN(c2ccc(C(=O)c3cccc(F)c3)cc2)CC1 | inconclusive: 0.82 µM [falling, full curve, poor fit] | 
NS(=O)(=O)c1ccc(Cl)cc1[N+](=O)[O-] |  | inconclusive: -29.1%
COc1ccc(Cl)cc1/C=C(\C#N)C(N)=O |  | inconclusive: 12.9%
Cc1cc(C(=O)Nn2cnnc2)cs1 | inconclusive: 29.1 µM [falling, single point] | 
CCN(CC)CCN(C(=O)Cn1nnc(-c2ccc(C)o2)n1)C(C(=O)NC1CCCC1)c1ccc(F)cc1 (centres undefined) |  | inconclusive: 38.9%
Cc1ccc(Cn2cc(S(=O)(=O)c3ccc(C(C)C)cc3)c(=O)c3cc4c(cc32)OCO4)cc1 |  | inconclusive: 18.2%
Cc1cnc(-c2nnc(N(C)C(=O)C3CCOC3)s2)cn1 (centres undefined) | active: 23.1 µM | 
